Results on three molecules are retold here after publication doi:10.1101/2022.06.24.497539.

Protein sequences, listed by entry. Tags and fused reporters are not part of them. Residues count along the entry.
UniProt P00367, residues 54-558: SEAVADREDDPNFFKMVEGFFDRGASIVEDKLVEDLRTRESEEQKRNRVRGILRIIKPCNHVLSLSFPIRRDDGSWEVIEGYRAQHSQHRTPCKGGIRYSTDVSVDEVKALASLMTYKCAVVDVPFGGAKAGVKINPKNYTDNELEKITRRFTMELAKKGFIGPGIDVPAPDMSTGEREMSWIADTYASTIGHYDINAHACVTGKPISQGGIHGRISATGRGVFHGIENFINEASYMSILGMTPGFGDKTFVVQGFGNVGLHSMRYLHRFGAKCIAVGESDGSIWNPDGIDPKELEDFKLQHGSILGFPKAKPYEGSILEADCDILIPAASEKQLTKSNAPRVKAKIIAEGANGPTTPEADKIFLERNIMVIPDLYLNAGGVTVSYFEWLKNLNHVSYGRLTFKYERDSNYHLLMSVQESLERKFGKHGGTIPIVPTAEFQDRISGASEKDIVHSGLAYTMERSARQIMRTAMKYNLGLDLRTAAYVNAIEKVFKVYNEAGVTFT
UniProt P26443, residues 54-558: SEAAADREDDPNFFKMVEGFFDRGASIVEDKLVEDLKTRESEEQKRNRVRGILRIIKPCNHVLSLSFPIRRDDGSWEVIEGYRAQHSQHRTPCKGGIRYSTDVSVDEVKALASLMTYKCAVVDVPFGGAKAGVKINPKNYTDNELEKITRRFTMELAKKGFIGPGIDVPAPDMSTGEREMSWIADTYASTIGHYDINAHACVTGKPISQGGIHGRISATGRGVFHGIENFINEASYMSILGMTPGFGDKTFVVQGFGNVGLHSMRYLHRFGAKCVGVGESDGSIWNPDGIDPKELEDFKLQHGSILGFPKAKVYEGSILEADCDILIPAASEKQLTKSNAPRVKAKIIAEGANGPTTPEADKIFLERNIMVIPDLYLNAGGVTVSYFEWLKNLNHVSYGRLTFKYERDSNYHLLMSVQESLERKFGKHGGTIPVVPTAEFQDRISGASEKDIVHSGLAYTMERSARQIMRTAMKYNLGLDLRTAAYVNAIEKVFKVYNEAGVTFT

Results are given in words; binding and its absence hold for the method and conditions named. Binding seen in cells or lysates may run through a third protein. Some binding calls cover weakened binding; strength is not graded here.

What all share (assay): cross-linking
Assay [1] deals with Glutamate dehydrogenase (DHE3), human (HEK293 mitochondria) (human (endogenous in HEK293)) (UniProt P00367).
Assay [2] deals with Glutamate dehydrogenase (DHE3), mouse (mouse (endogenous in gastrocnemius muscle)) (UniProt P26443).
In assay [3] the target is THIL (mouse (endogenous in gastrocnemius muscle)) (UniProt Q8QZT1).

For the molecule “Glutamate dehydrogenase (DHE3), human (HEK293 mitochondria) (from UniProt P00367 54-558) (enzyme)”, the binding result in assay [1] was “binds”. Regarding “Glutamate dehydrogenase (DHE3), mouse (from UniProt P26443 54-558) (enzyme)”, in assay [2], the binding result is “binds”.

B1: THIL (enzyme, UniProt Q8QZT1 31-424)
chain: ASKPTLNEVVIVSAIRTPIGSFLGSLASQPATKLGTAAIQGAIEKAGIPKEEVKEVYMGNVIQGGEGQAPTRQATLGAGLPISTPCTTVNKVCASGMKAIMMASQSLMCGHQDVMVAGGMESMSNVPYVMSRGATPYGGVKLEDLIVKDGLTDVYNKIHMGNCAENTAKKMNISRQEQDTYALSSYTRSKEAWDAGKFASEITPITISVKGKPDVVVKEDEEYKRVDFSKVPKLKTVFQKENGTITAANASTLNDGAAALVLMTAEAAQRLNVKPLARIAAFADAAVDPIDFPLAPAYAVPKVLKYAGLKKEDIAMWEVNEAFSVVVLANIKMLEIDPQKVNIHGGAVSLGHPIGMSGARIVVHMAHALKPGEFGLASICNGGGGASALLIEKL
In the case of B1, the binding entry in assay [3] was “binds”.
